Reference: PubChem BioAssay AID1508600 (Functional Genomics Laboratory (NCATS/FGL), 2020)
About 3,700 (7%) of roughly 53,000 sequences were called active.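 How the source made its calls: active means gene knockdowns whose robust z-score for IL-1 alpha signal is at least 2 or at most -2, so actives lie on both sides; inactive means the rest.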 This is one part of the list.

Test: Components of the Cytosolic LPS Sensing Pathway: Gene Identification via Genome-wide siRNA Screen;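 further: robust z of the log signal after scaling to non-targeting control siRNA wells of the plate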
Details: RAW264.7 macrophages, IL-1a HTRF, actives lie on both sides, screened at 100 nM (by protocol), cells primed 5 h with Pam3CSK4 first
Method in brief: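 RAW264.7; siRNA 100 nM final, RNAiMAX, 48h 37 degrees C; Pam3CSK4 5 h; LipidA + TransIT-TKO 24 h; IL-1a HTRF; CellTiter-Glo viability; robust z vs negative-control median.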

z-score, active:
GGCUUAAGCAGACGUGUCATT against Lhx8 -2.14
GGUGAUCCUUCUUUUUUACTT against Sgo1 -2.01
GGAUUUGUCAAUGCAAUAATT against Olfr1012 -2.68
GGGCAAACGGAGGAAUGAATT against Slc35g3 2.47
GCAAAAUUAUCAGUGAGGATT against Nt5c3b -2.54
GGUCAUGGUCUGAGAUUCUTT against Txnl4a -2.34
GGAAGGUGAUGAAUCAGCCTT against Wwtr1 -2.74
GGAAAUGUUUAUCACGGUUTT against Scube2 2.05
GGAAAUAAACCACCUCUUCTT against Olfr437 2.36

z-score, inactive:
GGGAACUACAAGCAUCCAGTT against Adm 1.32
GGUUUUCCCAUGAAGCAAGTT against Rps6 -1.37
GGGAGGAGUAAUAAUCCCGTT against B3gnt2 -0.147
GGCCUAUGUACCCUACCAATT against Enpp1 -1.35
GGCACAAAGCAAGAUUACCTT against Cebpz 0.422
GGGAAGUUGUCAAUACCUGTT against Sra1 0.0642
GCCUCAACCUGAUUAUCACTT against Enpp7 -0.0927
GGAGGUUGUGAUCUUGAAATT against Tbc1d23 -0.000244
GGUGUUAAGACUCAGCUCATT against Micall2 -1.49
GGACACAGGGUCUCUUACATT against Msrb2 -1.25
GGAGACAUCAAGAGUUCUGTT against H2-M10.1 -0.121
GGACAAUGCCCUGUAUCAGTT against Clic3 -0.822
GCAAUUGGUAAAGAUGAAATT against Sly -0.277
GGUCAAGCUCUUCUGCCUCTT against Trim62 0.764
GGUUAUUGUUGAGAAUCCUTT against Gpkow 0.252
CGCAGAGAAGGACUAUCUUTT against Ush1c -1.58
GGACUCACGUCAAGAUGUUTT against Ckap2l -0.961
GCAUGUGAUUACCUUUGUATT against Btbd10 0.633
AACAGCAUCUUUGUGGUCCTT against Ins1 -0.483
GCCCAGAAUGCUCACUAAATT against Sln 0.491
GGGAAAAUGCCAAGUGGAATT against Med8 -1.75
GGCAGAUGUACUGAUUAAATT against Tmprss11g 1.05
GGAGCAGAAGUCAAUCAGGTT against Myo1b 0.419
CGGCAAACUCAAGAAGCAGTT against Ccdc102a -1.6
GGAGGCUUAGGAUAAUUUATT against Proser1 0.83
GGCAUUAUGAGCAUCUCGGTT against Tnfrsf11a -0.394
GGGUCCUGCUCAACAUCAUTT against Strip1 -1.79
CCAGAUCCUAAAGUCUUUATT against Trpd52l3 0.677
GGAGCUGAGUCCUGAUGGATT against Apod 1.29
CCCUUCUAAAAGCUAUAAGTT against Osbpl10 -0.0668
GGAAUGGUGAUGGAGUGGATT against Ptges3l 1.19
GCACAGCUAACGGAAAACATT against Pfdn6 0.405
GGAAAAAUGAGCAGAAACUTT against 2700097O09Rik -0.834
GGUUACAGAAGAAUUAGAATT against Ift57 9.9e-05
GCGGAGAAUAUCUUGCUUATT against Mab21l4 -0.428
CGAUUUCAUAUUAACCAGCTT against Atad1 -0.282
GGUCUGGGAUACUAGAGCCTT against Prap1 0.902
CCGAACCUUCAGCUACACATT against Keap1 0.0133
GGCCAAAGUCCAUUCAUUCTT against Olfr1120 1.31
GGCAUCAACUAAACAAUCCTT against Psip1 0.664
GGCCAACAAUAUAAAAGACTT against Pus3 -0.641
CCCACCUUACAUAUAUUGATT against Srr 0.25
GGCUGAGGUCACCAUCAUCTT against Carmil1 0.0554
GGUCUACAGACUGGAUUCUTT against Vmn1r236 -0.308
GGCUCAAGUAUCUAAUCUUTT against Tpm4 -0.371
CGGUGUCAUCAGUUGCUUATT against Ckap5 -0.316
GGCACACAGCCCUCAAAUUTT against Mrpl30 -0.446
GCAUUACUGUAGGUAAGAGTT against Olfr630 -1.3
GGAGAUAUUGUAACUCGCCTT against Pcdhgb7 0.558
GGUUCAACAUAUCCAUAGCTT against Vmn1r185 -1.09
CCAAAUAACCUGCUACGAGTT against Ffar2 0.905
GGUCUCUAAAUCCUGCUUUTT against Vmn1r21 -0.554
CGAUUGUUAAAGAGAUCAUTT against Pgk2 0.472
CCCAACACAAUAUUUGCCATT against Nfyc 0.019
GGCAUCUGAUUUAAGUCCUTT against Ankhd1 -1.44
GGAAACACCUUCUUCAGCATT against Qrfprl -1.59
CCUGCUUAGGACCAUCGACTT against Lrrn2 -0.0914
GGUUAAACCCUCUUCUCAUTT against Uhrf2 -0.645
CCUACAGUUUAUAAGCUUCTT against Olfr877 0.639
CGAGGGAUAAGAGUCUACGTT against Ubxn11 1.45
CCAGCCUAAUCAAAGACCUTT against Fam53b -1.38
GGACACUGCAAAAGAGGAGTT against Defa4 1.37
GGCGAAAAGCCGUUCCAUUTT against E430018J23Rik 0.664
CCGAAAUCAUCUGAGAGCGTT against Rhd 0.252
CGCUCUGCCACUUUACCUUTT against 2210010C04Rik -0.0128
GGACUAUGGCUGCUGCUCATT against Dmrtc1a -0.0336
GGAUUCCUGUACAUAUAUUTT against Ube4b -0.501
GCUUUCAGAUGAUGACAAGTT against Cdc34 0.0219
CGCUUCAUUGAGGAUACAGTT against Acy1 0.0642
GGAAAAUCACCUAUAAGAATT against Rabl2 0.249
GGUUUCAAAUAAAAAGGCATT against Lrrc23 -0.893
GGCGAUAAGACAAAAAUGATT against Myom1 -1.41
GCUCACAAACUGAUUCCUUTT against 2700081O15Rik 0.714
GGUCACGAUUACUUCCCUGTT against Pcdha12 0.744
CCUAGAAAGAGGACUCAGATT against Abhd12 -0.293
GGCAGUGACACAGAAAUGATT against Tnks -0.115
GCUUUCUGAUUCAAAGAUGTT against Dsc3 -0.175
GCUAACCAGUCAGUUGAUCTT against Mocs1 -0.086
GGCCUGUGAGCUAUGUAUCTT against Krtap26-1 -0.792
GGGUUUAGACUGAGAAAUATT against Eif3i 0.856
GGCUUCAUCCACAUGCACUTT against Gja5 0.348
GGAUUUUUAUUCCAGAAGGTT against Fundc1 -0.781
GGGAAAUGGAGGAUAAUUATT against Zmat1 -0.172
GGCUAUGGAACAAAGUACUTT against Sostdc1 0.838
GGUUGAUGCUGCUAUUGGGTT against Thap1 -1.22
GGAAGAGAAAGAAGAGUAATT against Tub -1.76
GUCUUCUAACCAGGUAAAGTT against Tgoln2 0.0459
GGAGAAAAACAAAAACCAATT against Flii 0.283
GGCUGUUUGAGAUAUUAAUTT against Def6 0.219
GGUGACUGAGAAAAAUGUUTT against Gfra3 -0.326
GGUUCCUAAGGAUGAACUUTT against Akr1c14 -0.186
GGUUUAAUGAGCAUCCCUUTT against Foxj3 -0.299
GGAAGGUAAUAUUACAAGCTT against Ccdc68 0.44
GCUGUUACCUUGACGAAUATT against Tsc2 1.32
GGGUUUGACUUUUUGAGGGTT against Fbxo30 0.383
CGAGAAUGUAGAAAGUGGGTT against Mindy4 -0.781
GCUUUUCAUAUCUCUUGCATT against Olfr1385 0.408

Reprinted at random: 4 records from the list.
z-score, inactive:
GGAGGUUGUGAUCUUGAAATT against Tbc1d23 -0.000244
GGCGAUAAGACAAAAAUGATT against Myom1 -1.41
GUCUUCUAACCAGGUAAAGTT against Tgoln2 0.0459
GCCUCAACCUGAUUAUCACTT against Enpp7 -0.0927

At a glance, part of the list above:
z-score, inactive:
GGAGAAAAACAAAAACCAATT against Flii 0.283
GGCUGUUUGAGAUAUUAAUTT against Def6 0.219
